Results deposited as PubChem BioAssay AID652243 (Drosophila RNAi Screening Center, 2013)
The screen tested about 24,000 reagents; shown is an unselected part of those that have a named target and a result. In the full data, 246 (1%) got an active call. 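Plates not normalised; calls are printed but the firefly/Renilla ratio behind them is not deposited; fold cut for lowering reported inconsistently.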 The raw values are shown without normalisation. Entries without a mark were called inactive. Reagent sequences are not shown. The record does not give: the amount of reagent.

Purpose: 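Fly genes required for human androgen receptor driven transcription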 (primary screen)
Cells: Drosophila S2R+ cells
Reagents: long dsRNA against Drosophila genes
Time to read-out: 72 h (48 h, then 24 h hormone)
Challenge: synthetic androgen R1881 at 10 nM for 24 h
Measurement: 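Per-well raw luminescence of the androgen-driven firefly reporter and of the Renilla control, two replicates each, without normalisation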
Reading the numbers: firefly reporter light: higher = more light from androgen-responsive reporter; Renilla control light: higher = more constitutive control signal (cell number, transfection)
Rule for the call: 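Across duplicate plates, a knock-down whose log firefly/Renilla ratio shifted a set fold down or up from the GFP/LacZ control mean was a hit; the downward cut appears as both 1.5 and 3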
Meaning of the calls: active = hit: reporter lowered or raised; inactive = no hit

CG2698 [DRSC15447] → firefly reporter light, replicate 1 = 1.50e5; firefly reporter light, replicate 2 = 1.40e5; Renilla control light, replicate 1 = 3.35e6; Renilla control light, replicate 2 = 2.29e6
SA1 [DRSC03424] → firefly reporter light, replicate 1 = 6.65e5; firefly reporter light, replicate 2 = 5.80e5; Renilla control light, replicate 1 = 1.84e6; Renilla control light, replicate 2 = 1.12e6
SA1 [DRSC28222] → firefly reporter light, replicate 1 = 2.70e5; firefly reporter light, replicate 2 = 6.09e5; Renilla control light, replicate 1 = 9.36e5; Renilla control light, replicate 2 = 1.52e6
Nepl5 [DRSC03241] → firefly reporter light, replicate 1 = 1.25e6; firefly reporter light, replicate 2 = 9.60e5; Renilla control light, replicate 1 = 2.12e6; Renilla control light, replicate 2 = 2.09e6
Nepl5 [DRSC29153] → firefly reporter light, replicate 1 = 6.60e5; firefly reporter light, replicate 2 = 6.39e5; Renilla control light, replicate 1 = 1.32e6; Renilla control light, replicate 2 = 1.38e6
lbe [DRSC16985] → firefly reporter light, replicate 1 = 2.72e5; firefly reporter light, replicate 2 = 2.20e5; Renilla control light, replicate 1 = 3.39e6; Renilla control light, replicate 2 = 3.12e6
lbe [DRSC23597] → firefly reporter light, replicate 1 = 3.61e5; firefly reporter light, replicate 2 = 2.57e5; Renilla control light, replicate 1 = 5.13e5; Renilla control light, replicate 2 = 4.12e5
CG31862 [DRSC01245] → firefly reporter light, replicate 1 = 99678; firefly reporter light, replicate 2 = 1.14e5; Renilla control light, replicate 1 = 2.40e5; Renilla control light, replicate 2 = 3.17e5

Continued; the last 3 above are carried over.
lbe [DRSC16985] → firefly reporter light, replicate 1 = 2.72e5; firefly reporter light, replicate 2 = 2.20e5; Renilla control light, replicate 1 = 3.39e6; Renilla control light, replicate 2 = 3.12e6
lbe [DRSC23597] → firefly reporter light, replicate 1 = 3.61e5; firefly reporter light, replicate 2 = 2.57e5; Renilla control light, replicate 1 = 5.13e5; Renilla control light, replicate 2 = 4.12e5
CG31862 [DRSC01245] → firefly reporter light, replicate 1 = 99678; firefly reporter light, replicate 2 = 1.14e5; Renilla control light, replicate 1 = 2.40e5; Renilla control light, replicate 2 = 3.17e5
CG41257 (retired record) [DRSC38682] → firefly reporter light, replicate 1 = 6.92e5; firefly reporter light, replicate 2 = 8.07e5; Renilla control light, replicate 1 = 1.62e6; Renilla control light, replicate 2 = 1.77e6
dob [DRSC19948] → firefly reporter light, replicate 1 = 1.62e5; firefly reporter light, replicate 2 = 92372; Renilla control light, replicate 1 = 8.43e5; Renilla control light, replicate 2 = 8.18e5
Cpes [DRSC04475] → firefly reporter light, replicate 1 = 4.84e5; firefly reporter light, replicate 2 = 7.35e5; Renilla control light, replicate 1 = 1.19e6; Renilla control light, replicate 2 = 1.39e6
Cpes [DRSC27503] → firefly reporter light, replicate 1 = 1.82e5; firefly reporter light, replicate 2 = 1.98e5; Renilla control light, replicate 1 = 4.94e5; Renilla control light, replicate 2 = 7.43e5
Snap25 [DRSC21228] → firefly reporter light, replicate 1 = 2.38e5; firefly reporter light, replicate 2 = 2.64e5; Renilla control light, replicate 1 = 6.26e5; Renilla control light, replicate 2 = 4.47e5
Snap25 [DRSC21236] → firefly reporter light, replicate 1 = 7.10e5; firefly reporter light, replicate 2 = 7.42e5; Renilla control light, replicate 1 = 1.41e6; Renilla control light, replicate 2 = 1.35e6
CG31058 (retired record) [DRSC22987] → firefly reporter light, replicate 1 = 8.21e5; firefly reporter light, replicate 2 = 7.98e5; Renilla control light, replicate 1 = 1.58e6; Renilla control light, replicate 2 = 1.87e6
CG31058 (retired record) [DRSC25786] → firefly reporter light, replicate 1 = 5.88e5; firefly reporter light, replicate 2 = 4.24e5; Renilla control light, replicate 1 = 1.96e6; Renilla control light, replicate 2 = 1.13e6
CG31058 (retired record) [DRSC39085] → firefly reporter light, replicate 1 = 4.47e5; firefly reporter light, replicate 2 = 3.59e5; Renilla control light, replicate 1 = 1.28e6; Renilla control light, replicate 2 = 1.32e6
NaPi-III [DRSC10893] → firefly reporter light, replicate 1 = 6.45e5; firefly reporter light, replicate 2 = 4.58e5; Renilla control light, replicate 1 = 6.32e5; Renilla control light, replicate 2 = 6.61e5
NaPi-III [DRSC22953] → firefly reporter light, replicate 1 = 5.24e5; firefly reporter light, replicate 2 = 8.81e5; Renilla control light, replicate 1 = 7.25e5; Renilla control light, replicate 2 = 1.59e6
NaPi-III [DRSC28299] → firefly reporter light, replicate 1 = 7.80e5; firefly reporter light, replicate 2 = 7.82e5; Renilla control light, replicate 1 = 1.44e6; Renilla control light, replicate 2 = 1.96e6
NaPi-III [DRSC28977] → firefly reporter light, replicate 1 = 4.24e5; firefly reporter light, replicate 2 = 4.46e5; Renilla control light, replicate 1 = 1.18e6; Renilla control light, replicate 2 = 7.99e5
